pIC50: −log10 of the molar value. “Also recorded” adds a separate entry of the source.
Legend:
human basophils [1] = conditions: ionomycin 500 ng/ml; 0.1, 1.0 and 10 μM desloratadine
[2] = tested on: human mast and basophilic cell lines; conditions: in vitro; cited from earlier work
human basophils [3] = conditions: inhibition seen between 1 μM and 10 μM
IL-4 mRNA [4] = assay: cells; conditions: Homo sapiens, 2 h, read-out: inhibition of IL-4 protein secretion in the same cultures
human basophils [5] = assay: cells; conditions: read-out: inhibition of cytokine (IL-4 and IL-13) secretion
human basophils [6] = assay: cells; conditions: 18 h, read-out: IC50, IL-3-mediated IL-13 production
IL-4 mRNA [7] = conditions: desloratadine 10 μM; anti-IgE; 2 h
human basophils [8] = conditions: data not shown
human basophils [9] = tested on: human basophils
human basophils [10] = assay: cells; conditions: read-out: inhibition of IL-13 at initial plateau
[11] = anti-IgE, concentrations between 1 μM and 10 μM, 4 h

Clc1ccc2c(c1)CCc1cccnc1C2=C1CCNCC1 [desloratadine]
inhibition of IL-4 secreted in response to ionomycin (human basophils [1]): remarkably inhibited; also recorded: quite effective | inhibition of release of IL-6 [2]: up to 40% | inhibition of release of IL-8 [2]: up to 50% | inhibition of IL-13 induced by PMA (human basophils [3]): inhibited | inhibition at 10 µM (IL-4 mRNA [4]): > 95% | inhibition at 10 µM (human basophils [5]): > 95% | pIC50 (human basophils [6]): ~5.70 | inhibition of histamine secreted into the supernatants of the mRNA cultures (IL-4 mRNA [7]): inhibited | inhibition of LTC4 made in response to FMLP stimulation (human basophils [8]; FMLP): not inhibited | inhibition of histamine made in response to FMLP stimulation (human basophils [8]; FMLP): not inhibited | inhibition of histamine and/or LTC4 released with IgE-independent stimuli (human basophils [8]; ionomycin, fmlp, phorbol ester, any concentration tested): no evidence | inhibition of LTC4 release (human basophils [9]; [11]): dose-dependently inhibited | inhibition of histamine release (human basophils [9]; [11]): dose-dependently inhibited | inhibition of IL-4 secretion, basophils purified to greater than 99% (human basophils [9]; anti-IgE, pure basophils): also evident | inhibition of histamine release, pure basophils (human basophils [9]; anti-IgE, pure basophils): inhibited | times more potent at inhibiting IL-4 and IL-13 secretion than histamine and LTC4 release (human basophils [9]; induced by anti-IgE, same culture supernatants): 6-7 fold | inhibition at 1 µM (human basophils [10]): 50 to 70%

From patent publication US6599914B2, “Inhibition of cytokine generation” (Schering Corporation, priority 2001, dated 2003)
